The text below walks through data of the supplement of paper PMC7024190.

Where a name gives a salt, the structure may show the parent alone. Some of the results follow. This data set is noisy: repeats of one test often differ as much as different tests do.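 The cells were human embryonic kidney cells carrying a Renilla luciferase gene, driven by the HSV-TK promoter, on a plasmid put in briefly by transfection. This is the first-round screen of about ten thousand compounds, looking for ones that raise reporter output.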

The assay concerns HEK 293FT. Put plainly: log relative Renilla luciferase luminescence (reporter expression vs reference, reference not stated) (log (base not stated)); higher = higher recombinant reporter expression. As to conditions: 10 µM; time after transfection 48 h.
Turning to `COc1ccc2c(c1)CC[C@@H]1[C@@H]2CC[C@]2(C)[C@@H](O)CC[C@@H]12` [Estradiol-3-methyl-ether], the log came to 0.0932.

In the case of `O=C1C2CC3CC1CC(O)(C3)C2` [Idramantone], the log came to 0.0267.

For `CC(=O)O[C@]1(C(C)=O)CC[C@H]2[C@@H]3C[C@H](C)C4=CC(=O)CC[C@]4(C)[C@H]3CC[C@@]21C` [Medroxyprogesone acetate], the log came out at 0.102.

As for `CC(/C=C1\SC(=S)N(CC(=O)O)C1=O)=C\c1ccccc1` [Epalrestat], the log is -0.027.

With `CN(C)CC/C=C1/c2ccccc2Sc2ccc(Cl)cc21` [Chlorprothixene], the log turned out to be 0.0785. For the compound `Cn1cnc2c1c(=O)n(CC(O)CO)c(=O)n2C` (stereo not given) [Dihydroxypropyltheobromine], the log is 0.0745. The same measure for `CC(C)CCOC(=O)c1ccccc1O` [Isopentyl Salicylate]: 0.0942; for `CC1(C)S[C@@H]2[C@H](NC(=O)Cc3ccccc3)C(=O)N2[C@H]1C(=O)O` [Benzylpenicillin]: 0.186. With `CCN(CC)Cc1cc(Nc2ccnc3cc(Cl)ccc23)ccc1O` [Amodiaquine] the figure was -0.0282; with `C[C@@H]1CCC[C@H](C)N1NC(=O)c1ccc(Cl)c(S(N)(=O)=O)c1` [Clopamide], -0.089. With `CC1(C)C=Cc2c(O)nc3ccccc3c2O1` [Flindersine] the figure was -0.126; with `COc1cc(C(=O)NCCCCCC(=O)O)cc(OC)c1OC` [Capobenic acid], 0.141; with `[O-][n+]1c(CO)c(CO)[n+]([O-])c2ccccc21` [Dioxidine], 0.16.

`NC12CC3CC(CC(C3)C1)C2` [Amantadine]: the log amounted to 0.00781. The same measure for `CCC(N)C12CC3CC(CC(C3)C1)C2` (stereo not given) [Adapromin]: -0.176; for `CN[C@@H](CC(C)C)C(=O)N[C@H]1C(=O)N[C@H](CC(N)=O)C(=O)N[C@H]2C(=O)N[C@H]3C(=O)N[C@@H](C(=O)NC(C(=O)O)c4cc(O)cc(O)c4-c4cc3ccc4O)[C@@H](O[C@H]3C[C@](C)(N)[C@H](O)[C@@H](C)O3)c3ccc(cc3)Oc3cc2cc(c3O[C@H]2O[C@@H](CO)[C@@H](O)[C@H](O)[C@@H]2O[C@H]2C[C@](C)(N)[C@H](O)[C@@H](C)O2)Oc2ccc(cc2)[C@@H]1O` (stereo not given in full) [Orienticin C]: 0.000715; for `CN1CCN(c2cc3c(cc2F)c(=O)c(C(=O)O)cn3CCF)CC1`: -0.169. The same measure for `CCCOc1ccc(C(=O)OCCN(CC)CC)cc1N` [Proxymetacaine Hydrochloride]: 0.00428; for `CN1C[C@@H]2C[C@H]1CN2c1cc2c(cc1F)c(=O)c(C(=O)O)cn2C1CC1` [Danofloxacin Mesylate]: -0.23; for `[O-]c1c[n+](-c2ccccc2)no1` [3-Phenylsydnone]: 0.07. Consider `CCOc1ccc2nc3cc(N)ccc3c(N)c2c1` [Ethacridine], for which the log was -1.23. The same measure for `CC(C)=CCNc1ncnc2nc[nH]c12` [Isopentenyladenine]: -0.0904. The same measure for `CCC(C(=O)OCCOCCN(CC)CC)c1ccccc1` (stereo not given) [Butamirate Citrate]: 0.029. With `CNC(=O)c1nc[nH]c1C(=O)NC` [Norantiffein] the figure was 0.0664; with `CC(C(=O)O)c1ccc2c(c1)[nH]c1ccc(Cl)cc12` (stereo not given) [Carprofen], 0.119.

In the case of `Cc1nnc(SCC2=C(C(=O)O)N3C(=O)[C@@H](NC(=O)Cn4cnnn4)[C@H]3SC2)s1` [Cefazolin], the log was -0.0163.

On to `CC(C)c1nc(N(C)S(C)(=O)=O)nc(-c2ccc(F)cc2)c1/C=C/[C@@H](O)C[C@@H](O)CC(=O)O` [Rosuvastatin Calcium], for which the log is -0.00528. With `O=c1c(-c2ccc(O)cc2)coc2c([C@@H]3O[C@H](CO)[C@@H](O)[C@H](O)[C@H]3O)c(O)ccc12` [Puerarin] the figure was -0.568; with `C(#Cc1ccc(C#CCN2CCOCC2)cc1)CN1CCOCC1` [Benzomopine], 0.0715; with `CC(C)C(=O)OCC(=O)[C@@]12O[C@H](C3CCCCC3)O[C@@H]1C[C@H]1[C@@H]3CCC4=CC(=O)C=C[C@]4(C)[C@H]3[C@@H](O)C[C@@]12C` [Ciclesonide], -0.0634. The same measure for `O=C(O)CCCNC(=O)c1ccccn1` [Gaba-picolinoyl-N]: -0.189; for `CCCCCCCCC1CC1C(=O)O` (stereo not given) [Cyclopropanecarboxylate-octyl]: 0.121. With `CCC(N)(C(=O)O)P(=O)(O)O` (stereo not given) [Aminophosphonobutyric acid] the figure was -0.168.

With `CC(=O)O[C@H]1CC(C)=C2C(=O)C=C(C)[C@@H]2[C@H]2OC(=O)[C@@H](C)[C@@H]21` [Matricarin], the log is 0.0922. In the case of `OC(CNCC(O)C1CCc2cc(F)ccc2O1)C1CCc2cc(F)ccc2O1` (stereo not given) [Nebivolol Hydrochloride], the log was -0.0334. With `CC1(C)S[C@@H]2[C@H](NC(=O)COc3ccccc3)C(=O)N2[C@H]1C(=O)O` [Phenoxymethylpenicillin] the figure was -0.0398; with `COC1=C(OC)C(=O)C(C/C=C(\C)CC/C=C(\C)CC/C=C(\C)CC/C=C(\C)CC/C=C(\C)CC/C=C(\C)CC/C=C(\C)CC/C=C(\C)CC/C=C(\C)CCC=C(C)C)=C(C)C1=O` [Coenzyme q10], 0.0674; with `C=C(C)C(CC=C(C)C)Cc1c(O)cc(O)c2c1O[C@H](c1ccc(O)cc1O)CC2=O` (stereo not given in full) [Sophoraflavone G], -0.0464. The same measure for `Cc1ccnc(NS(=O)(=O)c2ccc(N)cc2)n1` [Sulfamerazine]: 0.097; for `O=C(O)Cn1cc(F)c(=O)[nH]c1=O` [Fluorouracilacetate]: -0.163.
